Measured values reported in article PMC5800941 (Biochemistry, 2017).

Amino acid sequences for entries named in this document (tags omitted). A change or cut given only in a name is not applied to a line headed by its entry.
UniProt P08684: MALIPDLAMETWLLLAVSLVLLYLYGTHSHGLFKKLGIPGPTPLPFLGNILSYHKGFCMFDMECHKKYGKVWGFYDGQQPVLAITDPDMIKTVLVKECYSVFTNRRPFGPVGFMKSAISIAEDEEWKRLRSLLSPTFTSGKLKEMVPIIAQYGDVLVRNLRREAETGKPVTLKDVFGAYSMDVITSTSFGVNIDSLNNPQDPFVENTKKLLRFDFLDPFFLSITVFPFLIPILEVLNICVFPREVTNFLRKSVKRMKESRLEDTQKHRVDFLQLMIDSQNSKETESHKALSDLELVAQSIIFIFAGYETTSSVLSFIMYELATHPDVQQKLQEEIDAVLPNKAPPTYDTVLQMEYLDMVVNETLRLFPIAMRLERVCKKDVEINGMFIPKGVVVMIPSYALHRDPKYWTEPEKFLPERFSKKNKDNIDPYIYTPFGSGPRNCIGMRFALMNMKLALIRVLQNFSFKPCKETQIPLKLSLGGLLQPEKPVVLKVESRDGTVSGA

Biological target: CYP3A4 in POPC Nanodiscs (Homo sapiens, UniProt P08684, S18F)
Experiment: Product formation
Type: biochemical
Conditions: binding intermediate with 1 substrate molecule bound; 37 C, pH 7.4

SMILES: CC(C)c1c(C(=O)Nc2ccccc2)c(-c2ccccc2)c(-c2ccc(F)cc2)n1CC[C@@H](O)C[C@@H](O)CC(=O)O [ARVS, atorvastatin]
- Product formation rate: 17 [15.6 – 21.5] min^−1
